Test results as given in publication PMC10700192.
Results are given in words; binding and its absence hold for the method and conditions named. In cells and extracts the contact can be indirect. Some binding calls cover weakened binding; strength is not graded here.

Sequences of proteins named here, by UniProt entry; tags and fusion partners are left off. Residues count along the entry.
UniProt Q6P3S6: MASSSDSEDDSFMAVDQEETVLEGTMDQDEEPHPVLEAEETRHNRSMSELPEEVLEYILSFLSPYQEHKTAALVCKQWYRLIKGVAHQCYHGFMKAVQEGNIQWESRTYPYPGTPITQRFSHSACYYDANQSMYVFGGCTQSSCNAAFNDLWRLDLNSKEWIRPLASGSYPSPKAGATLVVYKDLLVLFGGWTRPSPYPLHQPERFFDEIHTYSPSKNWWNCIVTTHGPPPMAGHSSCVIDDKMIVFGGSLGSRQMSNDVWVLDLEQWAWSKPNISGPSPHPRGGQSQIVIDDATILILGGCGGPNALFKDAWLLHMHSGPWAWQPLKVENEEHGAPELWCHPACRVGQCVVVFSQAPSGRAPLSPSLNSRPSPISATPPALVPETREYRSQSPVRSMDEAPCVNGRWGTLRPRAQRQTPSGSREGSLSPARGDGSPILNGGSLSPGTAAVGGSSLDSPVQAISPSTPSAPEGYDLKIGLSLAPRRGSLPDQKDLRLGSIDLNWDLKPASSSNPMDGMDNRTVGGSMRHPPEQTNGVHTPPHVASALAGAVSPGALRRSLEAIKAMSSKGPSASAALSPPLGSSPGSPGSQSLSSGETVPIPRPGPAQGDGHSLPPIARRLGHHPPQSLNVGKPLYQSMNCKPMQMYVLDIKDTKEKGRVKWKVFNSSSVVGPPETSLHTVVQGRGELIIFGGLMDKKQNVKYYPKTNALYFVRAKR
UniProt Q9NZQ7, residues 19-290: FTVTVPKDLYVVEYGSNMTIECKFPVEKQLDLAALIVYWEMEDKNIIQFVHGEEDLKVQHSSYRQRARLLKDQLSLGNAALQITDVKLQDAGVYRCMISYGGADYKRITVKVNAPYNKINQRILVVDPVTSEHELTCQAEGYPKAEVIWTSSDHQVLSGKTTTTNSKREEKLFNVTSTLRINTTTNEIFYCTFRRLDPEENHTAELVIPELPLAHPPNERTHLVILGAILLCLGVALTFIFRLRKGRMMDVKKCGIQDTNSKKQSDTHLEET

Tests used:
[1] = biological target: JFK E3 ubiquitin ligase (human (endogenous in H520)) (UniProt Q6P3S6); assay: co-IP; lysates of H520 cells (WT or CK2-/-) transfected with vector (pcDNA3), Flag-ING4 or Flag-S150A for 48 h; immunoprecipitation and Western blot
[2] = biological target: PD‐L1 (programmed death ligand 1) (human (endogenous in H520)) (UniProt Q9NZQ7); assay: as above
his‐PD‐L1 (human) = his‐PD‐L1 (human) (UniProt Q9NZQ7); assay: pull-down; Ni-NTA pull-down from lysates of H520 cells transfected with vector, his-PD-L1 or his-PD-L1/ΔC for 48 h; Western blot
[3] = biological target: JFK E3 ubiquitin ligase (human (endogenous in H520)) (UniProt Q6P3S6); assay: co-IP; endogenous proteins in H520 cell lysates (WT or CK2-/- cells; untreated or TBB 10 µM for 0, 0.5 and 2 h); lysis buffer 50 mM TrisHCl pH7.4, 150 mM NaCl, 2 mM EDTA, 1% NP-40, 0.1% SDS; primary antibody overnight at 4 °C, protein A/G magnetic beads; Western blot
[4] = biological target: PD‐L1 (programmed death ligand 1) (human (endogenous in H520)) (UniProt Q9NZQ7); assay: as above
GST‐ING4 (PEBG) (human) = GST‐ING4 (PEBG) (human) (UniProt Q9UNL4); assay: pull-down; GST pull-down from lysates of H520 cells transfected with PEBG (GST), GST-ING4, GST-ING4/ΔPHD or GST-F178A; Western blot

Substance | binding [1] | binding [2] | also measured
Flag‐ING4 (from UniProt Q9UNL4 1-249) | binds | binds | 
Flag‐ING4/S150A (from UniProt Q9UNL4 1-249) | binds | binds | 
ING4 (inhibitor of growth 4) (from UniProt Q9UNL4 1-249) |  |  | binding (his‐PD‐L1 (human)): binds; binding [3]: binds; binding [4]: binds
PD‐L1 (programmed death ligand 1) (from UniProt Q9NZQ7 19-290) |  |  | binding (GST‐ING4 (PEBG) (human)): binds
